Laboratory results taken from PMC7672424 (Nucleic Acids Research, 2020).

System: TTA45
Assay: Small-angle X-ray scattering of TTA45
Parameters: species or system human
Conditions: 100 μM TTA45 with 400 μM BMPQ-1

SMILES: Cc1ccc(Cn2cc3c(-c4ccc5c(c4)OCO5)nnc-3c3cc4c(cc32)OCO4)cc1 [BMPQ-1]
- gyration radius (Rg) of TTA45, holo form (apo 21.8 Å): 18.9 Å
- maximum distance (Dmax) of TTA45, holo form (apo 90 Å): 75 Å
